Measured values reported in publication doi:10.1101/2024.11.01.621505.
Changes are numbered by the printed parent chain. No constants are given. Whether binding was seen depends on the method and setting. Binding seen in cells or lysates may run through a third protein. Some results given as binding are weak or reduced against the parent protein; the word gives no strength. Tags and fused reporters may be left off the sequences shown.

What was measured:
[1] = target: T1, CCR9 C2-RlucII (T362A/T363A/S364A/S368A) (human) (UniProt P51686); test: FRET or BRET
T1 sequence: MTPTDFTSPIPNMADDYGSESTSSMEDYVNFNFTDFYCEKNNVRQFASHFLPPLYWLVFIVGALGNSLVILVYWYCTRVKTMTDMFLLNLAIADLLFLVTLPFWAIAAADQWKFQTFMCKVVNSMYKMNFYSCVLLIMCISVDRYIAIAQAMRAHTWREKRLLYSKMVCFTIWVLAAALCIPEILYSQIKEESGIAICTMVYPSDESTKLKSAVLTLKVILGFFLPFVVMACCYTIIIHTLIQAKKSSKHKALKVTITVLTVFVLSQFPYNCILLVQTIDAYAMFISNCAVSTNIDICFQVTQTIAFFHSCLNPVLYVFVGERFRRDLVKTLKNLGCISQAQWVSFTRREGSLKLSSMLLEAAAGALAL

CCR9-RlucII (human) = target: T2, CCR9-RlucII (human) (UniProt P51686); test: FRET or BRET
T2 sequence: T1 sequence with A362T, A363T, A364S, A368S

binding [1]: binds | binding (CCR9-RlucII (human)): binds
Substance: GFP10-β-arrestin2 (from UniProt P32121 1-409)
